Results are given in words; binding and its absence hold for the method and conditions named. Binding seen in cells or lysates may run through a third protein. A result given as binding can be weak or reduced; the word gives no strength.
Molecular target: Fes1ΔRD-GST (yeast (S. cerevisiae))
Assay: pull-down; Fes1-GST fusions purified on GST-beads from lysates of fes1Δ yeast grown at 30°C with or without calcofluor white (60 min); eluted with 20 mM glutathione; western blot for Slt2

B1: Slt2 (enzyme, UniProt Q00772 1-484)
chain: MADKIERHTFKVFNQDFSVDKRFQLIKEIGHGAYGIVCSARFAEAAEDTTVAIKKVTNVFSKTLLCKRSLRELKLLRHFRGHKNITCLYDMDIVFYPDGSINGLYLYEELMECDMHQIIKSGQPLTDAHYQSFTYQILCGLKYIHSADVLHRDLKPGNLLVNADCQLKICDFGLARGYSENPVENSQFLTEYVATRWYRAPEIMLSYQGYTKAIDVWSAGCILAEFLGGKPIFKGKDYVNQLNQILQVLGTPPDETLRRIGSKNVQDYIHQLGFIPKVPFVNLYPNANSQALDLLEQMLAFDPQKRITVDEALEHPYLSIWHDPADEPVCSEKFEFSFESVNDMEDLKQMVIQEVQDFRLFVRQPLLEEQRQLQLQQQQQQQQQQQQQQQQPSDVDNGNAAASEENYPKQMATSNSVAPQQESFGIHSQNLPRHDADFPPRPQESMMEMRPATGNTADIPPQNDNGTLLDLEKELEFGLDRKYF
  binding: binds

Source: PMC6615629, “Hsp70-nucleotide exchange factor (NEF) Fes1 has non-NEF roles in degradation of gluconeogenic enzymes and cell wall integrity” (PLoS Genetics, 2019)
